Earlier results as cited in patent US20090214600A1, “METHODS AND COMPOSITIONS FOR GASTRIC RESISTANT ORAL FORMULATIONS FOR INTESTINAL DELIVERY” (priority 2008, published 2009).
At least one read-out could not be matched to a standard name with certainty.

Details: cited from earlier work

In the case of `CO/N=C(\C(=O)N[C@@H]1C(=O)N2C(C(=O)O)=C(CSc3nc(=O)c(=O)[nH]n3C)CS[C@H]12)c1csc(N)n1` [Ceftriaxone, Ceftriaxone sodium], the “permeability to the lipid fraction of cellular membranes” value is listed as “relatively impermeable”.
